Data on 3 substances can be found in article doi:10.1101/515700.

Protein sequences, listed by entry. Tags and fused reporters are not part of them.
UniProt P21730: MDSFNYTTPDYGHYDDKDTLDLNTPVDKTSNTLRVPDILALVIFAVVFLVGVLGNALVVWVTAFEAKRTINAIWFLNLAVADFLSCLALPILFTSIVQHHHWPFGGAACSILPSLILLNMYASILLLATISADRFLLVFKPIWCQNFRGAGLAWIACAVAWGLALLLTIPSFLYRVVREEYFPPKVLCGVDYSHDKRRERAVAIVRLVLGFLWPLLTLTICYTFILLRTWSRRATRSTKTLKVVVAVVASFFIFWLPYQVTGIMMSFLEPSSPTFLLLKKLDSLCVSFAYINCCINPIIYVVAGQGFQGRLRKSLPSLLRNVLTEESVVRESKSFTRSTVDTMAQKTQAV
UniProt Q9P296: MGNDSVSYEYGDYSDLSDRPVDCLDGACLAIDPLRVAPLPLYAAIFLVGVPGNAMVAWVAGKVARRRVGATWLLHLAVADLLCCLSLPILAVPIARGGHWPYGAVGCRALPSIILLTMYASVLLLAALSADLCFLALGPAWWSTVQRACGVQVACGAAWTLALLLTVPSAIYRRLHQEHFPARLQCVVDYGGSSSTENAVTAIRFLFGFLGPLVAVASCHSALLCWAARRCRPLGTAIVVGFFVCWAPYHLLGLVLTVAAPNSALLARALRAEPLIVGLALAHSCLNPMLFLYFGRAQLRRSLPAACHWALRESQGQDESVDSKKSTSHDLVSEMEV
UniProt P17870: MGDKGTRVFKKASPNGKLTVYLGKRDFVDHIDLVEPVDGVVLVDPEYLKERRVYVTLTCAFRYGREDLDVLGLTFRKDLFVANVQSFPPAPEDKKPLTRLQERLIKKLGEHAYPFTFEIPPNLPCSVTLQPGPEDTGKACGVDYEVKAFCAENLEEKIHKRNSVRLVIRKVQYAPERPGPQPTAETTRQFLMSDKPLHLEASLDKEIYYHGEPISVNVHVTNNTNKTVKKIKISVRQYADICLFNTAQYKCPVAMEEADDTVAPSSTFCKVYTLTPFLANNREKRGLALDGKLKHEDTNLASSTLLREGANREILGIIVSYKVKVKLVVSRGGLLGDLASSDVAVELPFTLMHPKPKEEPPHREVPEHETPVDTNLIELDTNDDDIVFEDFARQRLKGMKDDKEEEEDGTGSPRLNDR
UniProt P32120: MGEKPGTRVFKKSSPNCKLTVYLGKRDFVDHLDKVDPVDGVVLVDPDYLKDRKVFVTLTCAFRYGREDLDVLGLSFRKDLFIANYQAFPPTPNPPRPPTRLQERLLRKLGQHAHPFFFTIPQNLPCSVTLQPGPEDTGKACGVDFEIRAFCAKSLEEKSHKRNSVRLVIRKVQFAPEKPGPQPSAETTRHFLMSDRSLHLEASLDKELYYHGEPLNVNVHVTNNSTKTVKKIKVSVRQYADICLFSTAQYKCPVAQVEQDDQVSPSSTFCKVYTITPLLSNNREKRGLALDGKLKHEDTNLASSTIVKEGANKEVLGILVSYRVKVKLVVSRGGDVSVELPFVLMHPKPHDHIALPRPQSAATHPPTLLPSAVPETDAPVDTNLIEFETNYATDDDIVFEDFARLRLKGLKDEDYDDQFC
UniProt P32121: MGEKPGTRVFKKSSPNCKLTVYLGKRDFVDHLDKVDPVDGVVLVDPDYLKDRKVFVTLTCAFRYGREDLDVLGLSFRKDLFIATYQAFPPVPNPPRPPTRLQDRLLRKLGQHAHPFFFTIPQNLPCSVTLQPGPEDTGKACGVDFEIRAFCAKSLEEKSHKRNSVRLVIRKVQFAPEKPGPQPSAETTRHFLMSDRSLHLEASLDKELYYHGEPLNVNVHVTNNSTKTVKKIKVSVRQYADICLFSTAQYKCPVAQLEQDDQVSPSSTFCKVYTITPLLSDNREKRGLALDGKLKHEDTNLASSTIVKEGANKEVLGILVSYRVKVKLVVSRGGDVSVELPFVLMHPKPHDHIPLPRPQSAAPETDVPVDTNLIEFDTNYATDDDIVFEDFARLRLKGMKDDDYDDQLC

Assay [1] has as its target FLAG-tagged human C5aR1 (human) (UniProt P21730). Nature of the assay: co-IP.
Assay [2] addresses C5aR2-Venus (UniProt Q9P296). The assay is described as follows: FRET or BRET.

Results are given in words; binding and its absence hold for the method and conditions named. In cells and extracts the contact can be indirect. Some entries that bind do so weakly or less than the wild type.

For “bovine βarr1 (from UniProt P17870 1-418)”, the binding entry in assay [1] is “binds”. Consider “bovine βarr2 (from UniProt P32120 1-420)”, for which, in assay [1], the binding entry is given as “binds”. As to βarr2-Rluc8 (from UniProt P32121 1-409), the binding result in assay [2] is recorded as “binds”.
